For one substance, binding results are on record in paper PMC9876638.

Sequences of proteins named here, by UniProt entry; tags and fusion partners are left off. Residues count along the entry.
UniProt P08025, residues 49-118: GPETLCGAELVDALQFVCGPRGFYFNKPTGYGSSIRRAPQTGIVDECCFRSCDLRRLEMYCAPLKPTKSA
UniProt P15473, residues 28-292: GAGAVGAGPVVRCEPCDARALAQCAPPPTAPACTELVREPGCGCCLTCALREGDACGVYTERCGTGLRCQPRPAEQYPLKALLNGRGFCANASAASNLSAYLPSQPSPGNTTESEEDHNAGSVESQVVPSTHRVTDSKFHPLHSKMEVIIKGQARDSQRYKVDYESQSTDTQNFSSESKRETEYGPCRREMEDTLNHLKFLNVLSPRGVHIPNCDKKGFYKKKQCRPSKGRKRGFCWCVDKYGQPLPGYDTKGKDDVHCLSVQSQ

The target of this experiment is Insulin-like growth factor 1 (rat (endogenous in H9c2)) (UniProt P08025). Put plainly: co-IP; total cellular extract of H9c2 cells (with or without 1.0 uM Dox for 24 h); 500 ug protein with 3 ug primary antibody overnight at 4°C, Protein G magnetic beads, washed with PBS, eluted at 95°C, western blot; the legend calls the association extracellular. A general note: A western blot detects proteins with antibodies after separation by electrophoresis.

No constants are given. Whether binding was seen depends on the method and setting. Binding seen in cells or lysates may run through a third protein. Some binding calls cover weakened binding; strength is not graded here.

As to “Insulin-like growth factor binding protein 3 (from UniProt P15473 28-292)”, the binding entry was “binds”.
